Structures can show the parent of a compound that is named as a salt. The list shows a part of the results. Baselines shift from plate to plate; read single values as rough.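 The clonal Drosophila S2 line carries Smoothened with a circularly permuted GFP inserted in its cytoplasmic tail, which fluoresces once Hh-driven phosphorylation opens an inhibitory loop. Per-cell fluorescence was read by flow cytometry, scaled to Hh-stimulated untreated cells. Hits were groups of inhibitors sharing pathway targets that shifted fluorescence consistently, not single compounds.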
System: Drosophila S2 cl14 SmoIP sensor cells
Assay: normalized SmoIP GFP fluorescence (untreated unstimulated = 0%, untreated Hh-stimulated = 100%); higher = more Smo activation sensor fluorescence
Conditions: compound concentration: 15 uM, 24 h
[1] = stimulation: Hh conditioned medium (+Hh)
[2] = stimulation: mock conditioned medium (-Hh)

| SMILES | normalized SmoIP GFP fluorescence [1] [%] | normalized SmoIP GFP fluorescence [2] [%] |
| --- | --- | --- |
| COc1ccc(C(CN(C)C)C2(O)CCCCC2)cc1 (stereo unspecified) [Venlafaxine-hydrochloride] | 127 | 1.03 |
| CCc1c(C(=O)C(N)=O)c2c(OCC(=O)O)cccc2n1Cc1ccccc1 | 131 | 9 |
| C#C[C@]1(O)C=C[C@H]2[C@@H]3CCC4=CC(=O)CC[C@@H]4[C@H]3CC[C@@]21CC [Gestodene] | 154 | 14.5 |
| C[C@](O)(COc1ccc(C#N)cc1)C(=O)Nc1ccc(C#N)c(C(F)(F)F)c1 [Ostarine] | 162 | 52.9 |
| C[C@]12N[C@H](Cc3ccccc31)c1ccccc12 [mk-801-maleate] | 116 | 1.1 |
| Cc1cccc(C)c1NC(=O)CN1CCCC1=O [Nefiracetam(Translon)] | 125 | -15.8 |
| CC[C@@]1(O)C(=O)OCc2c1cc1n(c2=O)Cc2cc3ccccc3nc2-1 [Camptothecine] | 51.7 | 5.98 |
| C[N+](C)(C)CCCCCCCCCC[N+](C)(C)C [decamethonium-bromide] | 113 | 0.986 |
| C[C@]12CC[C@H](O)CC1=CC[C@@H]1[C@@H]2CC[C@]2(C)C(=O)CC[C@@H]12 [Dehydroepiandrosterone(DHEA)] | 140 | -11.6 |
| N#CC(C#N)=Cc1ccc(O)c(O)c1 [ag-18-tyrphostin-23] | 94.6 | 40.5 |
| CN1c2ccccc2C(NCCCCCCC(=O)O)c2ccc(Cl)cc2S1(=O)=O (stereo unspecified) [Tianeptine-sodium-salt] | 157 | 12.4 |
| C[C@H]1CCC/C=C/[C@@H]2C[C@H](O)C[C@H]2[C@H](O)/C=C/C(=O)O1 [brefeldin-a] | 79.6 | -9.35 |
| COC[C@H]1OC(=O)c2coc3c2[C@@]1(C)C1=C(C3=O)[C@@H]2CCC(=O)[C@@]2(C)C[C@H]1OC(C)=O [wortmannin] | 76.4 | 32.6 |
| CN1[C@@H]2C[C@@H](OC(=O)[C@H](CO)c3ccccc3)C[C@H]1[C@@H]1O[C@@H]12 [Scopolamine-hydrobromide] | 134 | -20.3 |
| CCCN1C[C@H](CSC)C[C@@H]2c3cccc4[nH]cc(c34)C[C@H]21 [Pergolide-mesylate] | 167 | 28.5 |
| Cc1ccccc1-n1c(Cn2ncc3c(N)ncnc32)nc2cccc(C)c2c1=O | 142 | 0.605 |
| C[C@]12CC[C@H]3[C@@H](CC[C@@]45O[C@@H]4C(O)=C(C#N)C[C@]35C)[C@@H]1CC[C@@H]2O [Trilostane] | 157 | 16.8 |
| CN1CCC(c2c[nH]c3ccc(O)cc23)CC1 | 113 | -1.51 |
| C=CC[C@]1(O)CC[C@H]2[C@@H]3CCC4=CC(=O)CCC4=C3C=C[C@@]21C [altrenogest] | 133 | 5.47 |
| CN1CCc2cc3c(cc2[C@H]1[C@@H]1OC(=O)c2c1ccc1c2OCO1)OCO3 [bicuculline] | 117 | -2.2 |
| C[C@H]1CNCCc2ccc(Cl)cc21 [lorcaserin-hcl] | 121 | 7.58 |
| CCN(CC)C(=O)c1ccc(C2=CC3(CCNCC3)Oc3cccc(O)c32)cc1 | 133 | 11.3 |
| O=C(NCC1CCOCC1)c1cnc(Nc2ccc(Cl)cc2Cl)nc1C(F)(F)F | 98.6 | 17.7 |
| Cc1cccc(C(C)c2c[nH]cn2)c1C (stereo unspecified) [medetomidine-hcl] | 120 | -0.151 |

By substructure: the compounds so far containing nitrogen in an aromatic ring (seven)

| SMILES | normalized SmoIP GFP fluorescence [1] [%] | normalized SmoIP GFP fluorescence [2] [%] |
| --- | --- | --- |
| CCc1c(C(=O)C(N)=O)c2c(OCC(=O)O)cccc2n1Cc1ccccc1 | 131 | 9 |
| CC[C@@]1(O)C(=O)OCc2c1cc1n(c2=O)Cc2cc3ccccc3nc2-1 [Camptothecine] | 51.7 | 5.98 |
| CCCN1C[C@H](CSC)C[C@@H]2c3cccc4[nH]cc(c34)C[C@H]21 [Pergolide-mesylate] | 167 | 28.5 |
| Cc1ccccc1-n1c(Cn2ncc3c(N)ncnc32)nc2cccc(C)c2c1=O | 142 | 0.605 |
| CN1CCC(c2c[nH]c3ccc(O)cc23)CC1 | 113 | -1.51 |
| O=C(NCC1CCOCC1)c1cnc(Nc2ccc(Cl)cc2Cl)nc1C(F)(F)F | 98.6 | 17.7 |
| Cc1cccc(C(C)c2c[nH]cn2)c1C (stereo unspecified) [medetomidine-hcl] | 120 | -0.151 |

Further compounds.

| SMILES | normalized SmoIP GFP fluorescence [1] [%] | normalized SmoIP GFP fluorescence [2] [%] |
| --- | --- | --- |
| CCC(COC(=O)c1cc(OC)c(OC)c(OC)c1)(c1ccccc1)N(C)C (stereo unspecified) [trimebutine] | 161 | -6.16 |
| C=C1C[C@@H]2[C@H](CC[C@]3(C)C(=O)CC[C@@H]23)[C@@]2(C)C=CC(=O)C=C12 [Exemestane] | 150 | 10.7 |
| CCN(C)C(=O)Oc1cccc([C@H](C)N(C)C)c1 [rivastigmine-tartrate-exelon] | 106 | -3.39 |
| CN1CCN(c2nc3ccccc3nc2Cl)CC1 | 123 | 2.46 |
| N[C@@H]1C[C@H]1c1ccccc1 [tranylcypromine-2-pcpa-hcl] | 112 | 0.588 |
| COC(=O)C1=CCCN(C)C1 [arecoline] | 181 | 0.334 |
| Cc1cc(SCc2sc(-c3ccc(C(F)(F)F)c(F)c3)nc2C)ccc1OCC(=O)O | 109 | -0.151 |
| CNCC(=O)c1ccc(O)c(O)c1 [adrenalone-hcl] | 121 | -0.889 |
| Cc1cccc(Cc2c[nH]cn2)c1C [detomidine-hcl] | 126 | -9.04 |
| CC(=O)Nc1ccc(OC[C@](C)(O)C(=O)Nc2ccc([N+](=O)[O-])c(C(F)(F)F)c2)cc1 [Andarine] | 147 | 31.3 |
| Fc1cc(F)c2c(c1)[C@H]1C=CC[C@H]1C(c1cccnc1)N2 (stereo partly specified) [golgicide-a] | 126 | 1.1 |
| Cc1sc2c(c1C)C(c1ccc(Cl)cc1)=N[C@@H](CC(=O)Nc1ccc(O)cc1)c1nnc(C)n1-2 | 158 | 26.5 |
| CN1[C@@H]2CC(O)C[C@H]1[C@@H]1O[C@@H]12 (stereo partly specified) [scopine] | 122 | -16.4 |
| CNCC(O)c1ccc(O)cc1 (stereo unspecified) [synephrine-hcl] | 132 | -15.6 |
| COc1cc(-n2c(=S)[nH]c3ccccc3c2=O)c(Cl)cc1Cl [mdivi-1] | 114 | 5.87 |
| COc1ccc(C(=O)N2CCCC2=O)cc1 [Aniracetam] | 139 | 5.98 |
| O=C(O)CNC(=O)c1c(O)c2ccccc2n(Cc2ccccc2)c1=O | 125 | 0.588 |
| Cc1cccc([C@H](C)c2c[nH]cn2)c1C [dexmedetomidine] | 121 | 1.61 |
| O=C(O[C@H]1C[N+]2(CCCOc3ccccc3)CCC1CC2)C(O)(c1cccs1)c1cccs1 [aclidinium-bromide] | 112 | -4.58 |
| CCOc1ccccc1-n1c(C(C)N2CCN(C(=O)COc3ccc(Cl)cc3)CC2)nc2ccccc2c1=O (stereo unspecified) [erastin] | 221 | 69.3 |
| C[C@@H]1O[C@@H](O[C@H]2C[C@@H](O)[C@]3(CO)[C@H]4[C@H](O)C[C@]5(C)[C@@H](C6=CC(=O)OC6)CC[C@]5(O)[C@@H]4CC[C@]3(O)C2)[C@H](O)[C@H](O)[C@H]1O [ouabain] | 101 | -4.47 |
| C[C@]12CCC(=O)C(O)=C1CC[C@@H]1[C@@H]2CC[C@]2(C)C(=O)CC[C@@H]12 [Formestane] | 119 | -1.34 |
| [O-][n+]1ccccc1[S-].[O-][n+]1ccccc1[S-].[Zn+2] [zinc-pyrithione] | 114 | 36.3 |
| CCCN1CCOC2c3cc(O)ccc3OCC21 (stereo unspecified) | 123 | -14.3 |

Sorted by count of non-hydrogen atoms (rising): some entries from above

| SMILES | normalized SmoIP GFP fluorescence [1] [%] | normalized SmoIP GFP fluorescence [2] [%] |
| --- | --- | --- |
| COC(=O)C1=CCCN(C)C1 [arecoline] | 181 | 0.334 |
| CN1CCN(c2nc3ccccc3nc2Cl)CC1 | 123 | 2.46 |
| CCc1c(C(=O)C(N)=O)c2c(OCC(=O)O)cccc2n1Cc1ccccc1 | 131 | 9 |

— the supplement of paper PMC5662767
